From publication PMC8664928 come the findings set out here.

Chains of the proteins cited; added tags and fusions are not shown. Lines headed by an entry give the natural chain unless they say otherwise; changes in a name come on top. A line that says so, or that is headed by a name, gives the form on record, which may keep a tag or linker.
UniProt P21817: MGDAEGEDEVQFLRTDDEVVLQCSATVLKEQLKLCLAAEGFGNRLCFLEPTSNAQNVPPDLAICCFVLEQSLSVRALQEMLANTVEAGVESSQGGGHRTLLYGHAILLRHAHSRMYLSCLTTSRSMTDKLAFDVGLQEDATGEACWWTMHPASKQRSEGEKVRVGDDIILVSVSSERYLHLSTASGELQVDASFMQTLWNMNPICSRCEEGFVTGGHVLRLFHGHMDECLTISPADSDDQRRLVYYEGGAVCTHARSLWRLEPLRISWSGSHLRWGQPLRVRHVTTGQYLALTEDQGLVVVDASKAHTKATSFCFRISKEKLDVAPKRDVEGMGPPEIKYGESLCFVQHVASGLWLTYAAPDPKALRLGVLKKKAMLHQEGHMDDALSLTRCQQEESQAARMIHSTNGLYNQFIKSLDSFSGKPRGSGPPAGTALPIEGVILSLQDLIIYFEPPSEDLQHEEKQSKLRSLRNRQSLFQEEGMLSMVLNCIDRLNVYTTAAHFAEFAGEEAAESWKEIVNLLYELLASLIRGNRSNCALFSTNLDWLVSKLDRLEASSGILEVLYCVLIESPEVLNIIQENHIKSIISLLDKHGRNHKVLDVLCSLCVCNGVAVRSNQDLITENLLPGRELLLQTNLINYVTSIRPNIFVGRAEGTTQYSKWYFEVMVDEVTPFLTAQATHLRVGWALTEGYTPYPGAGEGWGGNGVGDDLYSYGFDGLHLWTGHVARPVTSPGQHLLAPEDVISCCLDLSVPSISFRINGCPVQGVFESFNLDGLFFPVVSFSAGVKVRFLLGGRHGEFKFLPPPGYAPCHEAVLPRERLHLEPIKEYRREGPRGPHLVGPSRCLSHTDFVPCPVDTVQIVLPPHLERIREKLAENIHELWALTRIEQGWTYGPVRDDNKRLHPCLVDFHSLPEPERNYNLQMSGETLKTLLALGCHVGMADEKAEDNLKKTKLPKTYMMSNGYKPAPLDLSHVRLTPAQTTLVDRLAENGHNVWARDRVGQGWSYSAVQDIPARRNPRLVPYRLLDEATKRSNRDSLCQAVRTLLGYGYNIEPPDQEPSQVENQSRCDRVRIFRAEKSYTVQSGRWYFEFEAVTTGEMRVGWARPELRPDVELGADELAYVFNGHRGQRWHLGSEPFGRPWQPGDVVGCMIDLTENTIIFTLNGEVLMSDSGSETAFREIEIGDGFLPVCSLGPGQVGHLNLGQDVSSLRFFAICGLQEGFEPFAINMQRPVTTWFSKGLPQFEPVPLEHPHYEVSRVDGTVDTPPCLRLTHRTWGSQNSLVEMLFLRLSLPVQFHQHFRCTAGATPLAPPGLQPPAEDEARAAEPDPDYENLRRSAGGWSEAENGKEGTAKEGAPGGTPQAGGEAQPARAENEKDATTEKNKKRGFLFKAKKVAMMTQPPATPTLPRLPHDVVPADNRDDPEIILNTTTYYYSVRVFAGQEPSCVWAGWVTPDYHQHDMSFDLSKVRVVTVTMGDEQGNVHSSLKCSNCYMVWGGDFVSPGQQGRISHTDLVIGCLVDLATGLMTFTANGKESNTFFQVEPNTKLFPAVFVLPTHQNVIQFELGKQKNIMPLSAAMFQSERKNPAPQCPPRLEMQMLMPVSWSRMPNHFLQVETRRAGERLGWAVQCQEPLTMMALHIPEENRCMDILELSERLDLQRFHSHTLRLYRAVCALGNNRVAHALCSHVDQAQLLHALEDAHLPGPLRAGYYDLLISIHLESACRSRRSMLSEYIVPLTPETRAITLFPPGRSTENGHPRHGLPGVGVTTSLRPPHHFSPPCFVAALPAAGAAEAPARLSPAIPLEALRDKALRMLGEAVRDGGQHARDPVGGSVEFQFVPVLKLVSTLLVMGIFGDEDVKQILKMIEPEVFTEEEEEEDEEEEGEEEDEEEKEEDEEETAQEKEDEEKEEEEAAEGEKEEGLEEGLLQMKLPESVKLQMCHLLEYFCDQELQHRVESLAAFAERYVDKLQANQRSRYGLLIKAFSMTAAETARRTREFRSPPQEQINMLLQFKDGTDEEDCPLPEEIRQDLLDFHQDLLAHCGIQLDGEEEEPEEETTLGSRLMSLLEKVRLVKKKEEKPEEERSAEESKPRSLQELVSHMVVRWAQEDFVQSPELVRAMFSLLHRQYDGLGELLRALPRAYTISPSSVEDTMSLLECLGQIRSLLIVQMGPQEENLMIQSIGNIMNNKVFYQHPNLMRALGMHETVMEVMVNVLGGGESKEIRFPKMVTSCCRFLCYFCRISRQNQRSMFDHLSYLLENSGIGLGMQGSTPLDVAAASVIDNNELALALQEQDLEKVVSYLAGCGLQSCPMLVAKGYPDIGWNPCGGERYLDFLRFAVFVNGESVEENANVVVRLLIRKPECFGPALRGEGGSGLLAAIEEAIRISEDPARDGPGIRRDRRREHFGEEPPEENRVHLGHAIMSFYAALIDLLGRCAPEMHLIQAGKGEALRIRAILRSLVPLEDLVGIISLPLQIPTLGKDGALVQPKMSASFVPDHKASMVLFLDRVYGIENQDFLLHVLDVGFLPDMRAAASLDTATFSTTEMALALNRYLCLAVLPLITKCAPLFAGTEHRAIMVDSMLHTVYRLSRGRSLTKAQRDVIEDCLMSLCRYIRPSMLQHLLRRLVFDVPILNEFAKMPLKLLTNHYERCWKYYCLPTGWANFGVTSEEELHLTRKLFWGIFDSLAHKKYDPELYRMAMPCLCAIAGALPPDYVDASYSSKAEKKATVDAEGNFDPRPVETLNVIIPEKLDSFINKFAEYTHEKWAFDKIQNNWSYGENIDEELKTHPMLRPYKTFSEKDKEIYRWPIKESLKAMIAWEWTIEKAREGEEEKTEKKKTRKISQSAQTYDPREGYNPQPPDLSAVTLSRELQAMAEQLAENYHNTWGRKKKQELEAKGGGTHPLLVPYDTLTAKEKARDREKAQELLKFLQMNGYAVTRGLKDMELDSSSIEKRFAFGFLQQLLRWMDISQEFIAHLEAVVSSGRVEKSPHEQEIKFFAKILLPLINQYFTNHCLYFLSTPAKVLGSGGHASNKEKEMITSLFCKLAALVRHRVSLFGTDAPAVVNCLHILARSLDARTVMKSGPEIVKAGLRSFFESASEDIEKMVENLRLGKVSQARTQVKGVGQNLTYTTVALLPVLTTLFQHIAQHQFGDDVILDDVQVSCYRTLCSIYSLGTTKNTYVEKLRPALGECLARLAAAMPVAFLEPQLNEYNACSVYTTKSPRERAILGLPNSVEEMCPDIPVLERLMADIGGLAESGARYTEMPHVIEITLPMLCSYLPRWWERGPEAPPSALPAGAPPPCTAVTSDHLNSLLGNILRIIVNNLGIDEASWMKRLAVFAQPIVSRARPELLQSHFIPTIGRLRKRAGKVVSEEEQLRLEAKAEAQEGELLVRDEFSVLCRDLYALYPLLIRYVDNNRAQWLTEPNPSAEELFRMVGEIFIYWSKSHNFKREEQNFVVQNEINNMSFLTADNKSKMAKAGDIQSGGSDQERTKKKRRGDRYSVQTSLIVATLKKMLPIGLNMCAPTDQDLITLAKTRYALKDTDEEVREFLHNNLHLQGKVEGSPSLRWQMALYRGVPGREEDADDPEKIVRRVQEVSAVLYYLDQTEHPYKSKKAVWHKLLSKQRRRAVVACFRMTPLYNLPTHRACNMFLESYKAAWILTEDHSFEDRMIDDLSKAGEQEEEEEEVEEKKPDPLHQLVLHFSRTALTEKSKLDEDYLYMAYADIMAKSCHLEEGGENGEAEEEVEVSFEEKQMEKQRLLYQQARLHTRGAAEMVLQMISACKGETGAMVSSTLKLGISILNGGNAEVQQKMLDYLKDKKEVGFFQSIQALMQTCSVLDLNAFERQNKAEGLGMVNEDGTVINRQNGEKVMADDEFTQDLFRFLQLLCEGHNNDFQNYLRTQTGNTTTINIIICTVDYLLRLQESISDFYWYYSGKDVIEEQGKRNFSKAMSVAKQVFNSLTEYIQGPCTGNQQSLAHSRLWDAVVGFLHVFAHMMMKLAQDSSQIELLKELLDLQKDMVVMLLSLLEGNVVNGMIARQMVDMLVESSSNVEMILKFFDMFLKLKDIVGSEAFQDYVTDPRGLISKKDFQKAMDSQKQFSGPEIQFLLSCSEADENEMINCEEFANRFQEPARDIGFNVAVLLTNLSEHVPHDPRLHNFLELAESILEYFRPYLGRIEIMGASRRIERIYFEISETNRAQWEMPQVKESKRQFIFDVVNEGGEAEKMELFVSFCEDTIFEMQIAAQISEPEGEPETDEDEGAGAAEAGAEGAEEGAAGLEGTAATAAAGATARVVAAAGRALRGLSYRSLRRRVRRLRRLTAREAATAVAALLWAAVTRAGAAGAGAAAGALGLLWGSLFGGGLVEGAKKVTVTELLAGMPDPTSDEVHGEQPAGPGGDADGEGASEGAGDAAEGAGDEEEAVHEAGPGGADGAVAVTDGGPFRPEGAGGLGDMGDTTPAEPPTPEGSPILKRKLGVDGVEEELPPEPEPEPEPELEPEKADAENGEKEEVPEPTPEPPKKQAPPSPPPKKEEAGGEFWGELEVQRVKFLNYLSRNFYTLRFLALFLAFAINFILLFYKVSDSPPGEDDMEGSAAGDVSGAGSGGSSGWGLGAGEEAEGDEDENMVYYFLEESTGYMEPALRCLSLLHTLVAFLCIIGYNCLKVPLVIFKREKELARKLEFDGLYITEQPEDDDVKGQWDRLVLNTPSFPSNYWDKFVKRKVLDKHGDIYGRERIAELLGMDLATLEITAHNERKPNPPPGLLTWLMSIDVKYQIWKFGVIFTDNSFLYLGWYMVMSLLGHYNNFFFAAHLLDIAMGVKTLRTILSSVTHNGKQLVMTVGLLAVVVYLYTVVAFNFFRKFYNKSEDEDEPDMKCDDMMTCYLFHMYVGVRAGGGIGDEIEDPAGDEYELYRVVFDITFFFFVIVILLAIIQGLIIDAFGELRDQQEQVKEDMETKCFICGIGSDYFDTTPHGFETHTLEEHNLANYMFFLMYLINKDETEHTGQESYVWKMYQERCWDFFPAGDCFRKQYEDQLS
UniProt P26883: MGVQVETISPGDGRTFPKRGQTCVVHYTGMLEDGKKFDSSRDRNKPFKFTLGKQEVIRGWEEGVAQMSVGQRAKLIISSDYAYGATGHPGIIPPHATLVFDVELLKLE
sarco-endoplasmic Ca2+-ATPase (SERCA), human skeletal muscle (P16615-2, form named): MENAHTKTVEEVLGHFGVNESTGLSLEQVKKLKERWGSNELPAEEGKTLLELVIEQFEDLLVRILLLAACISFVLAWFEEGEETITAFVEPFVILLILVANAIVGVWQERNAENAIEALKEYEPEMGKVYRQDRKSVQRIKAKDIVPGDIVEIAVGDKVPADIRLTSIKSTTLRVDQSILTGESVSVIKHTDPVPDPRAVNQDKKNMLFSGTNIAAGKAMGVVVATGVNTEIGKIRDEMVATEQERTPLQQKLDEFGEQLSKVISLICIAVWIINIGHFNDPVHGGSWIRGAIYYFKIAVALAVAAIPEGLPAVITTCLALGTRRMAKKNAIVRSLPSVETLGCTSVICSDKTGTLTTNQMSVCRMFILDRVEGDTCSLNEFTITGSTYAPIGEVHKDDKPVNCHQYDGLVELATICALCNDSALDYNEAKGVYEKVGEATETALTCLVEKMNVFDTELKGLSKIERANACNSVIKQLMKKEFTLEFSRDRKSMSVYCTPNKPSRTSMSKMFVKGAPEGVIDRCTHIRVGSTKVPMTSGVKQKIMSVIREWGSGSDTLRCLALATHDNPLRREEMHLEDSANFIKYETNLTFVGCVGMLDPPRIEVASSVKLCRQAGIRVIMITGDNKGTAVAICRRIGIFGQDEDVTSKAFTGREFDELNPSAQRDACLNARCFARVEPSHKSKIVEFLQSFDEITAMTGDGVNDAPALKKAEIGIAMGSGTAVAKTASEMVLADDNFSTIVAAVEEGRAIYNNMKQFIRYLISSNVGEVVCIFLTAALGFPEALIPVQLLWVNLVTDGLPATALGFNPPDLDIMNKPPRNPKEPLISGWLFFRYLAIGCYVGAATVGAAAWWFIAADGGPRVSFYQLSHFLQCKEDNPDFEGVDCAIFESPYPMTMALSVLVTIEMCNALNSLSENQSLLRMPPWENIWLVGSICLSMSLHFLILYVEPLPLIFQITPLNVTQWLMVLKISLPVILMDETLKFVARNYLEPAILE

Experiment [1] concerns the target ryanodine receptor 1 (RyR1), human skeletal muscle (human (endogenous in vastus lateralis muscle)) (UniProt P21817). Kind of experiment: co-IP; RyR1 immunoprecipitated with anti-RyR1 antibody 5029 and protein A Sepharose from 250 ug homogenate of human vastus lateralis biopsies (Pre, Post, 24 h post SIT or MICT); modified RIPA buffer (50 mM Tris-HCl pH 7.4, 0.9% NaCl, 1% Triton X-100), 4 °C; immunoblot.

The target in experiment [2] is ryanodine receptor 1 (RyR1), mouse C2C12 myotubes (mouse (endogenous in C2C12)) (UniProt E9PZQ0). Kind of experiment: co-IP; RyR1 immunoprecipitated with anti-RyR1 antibody 5029 and protein A Sepharose from 250 ug homogenate of C2C12 myotubes (CTRL, S-MICT, S-SIT; without or with 10 uM S107 for 3 h); modified RIPA buffer (50 mM Tris-HCl pH 7.4, 0.9% NaCl, 1% Triton X-100), 4 °C; immunoblot. For orientation: Immunoblotting shows a protein as a band on a membrane.

Results are given in words; binding and its absence hold for the method and conditions named. Binding seen in cells or lysates may run through a third protein. Some entries that bind do so weakly or less than the wild type.

“calstabin1 (FKBP12), human skeletal muscle (from UniProt P62942 1-108)”: the binding entry in experiment [1] was “binds”.
As for “calstabin1 (FKBP12), mouse C2C12 myotubes (from UniProt P26883 1-108)”, the binding entry in experiment [2] was “binds”.
As to “sarco-endoplasmic Ca2+-ATPase (SERCA), human skeletal muscle (from UniProt P16615-2 1-997)”, the binding result in experiment [1] is “no binding”.
Turning to “sarco-endoplasmic Ca2+-ATPase (SERCA), mouse C2C12 myotubes, tested in the RyR1 immunoprecipitate (from UniProt O55143-2 1-998)”, in experiment [2], the binding entry is “no binding”.
